Data: PMC6988918
Results are given in words; binding and its absence hold for the method and conditions named. Binding seen in cells or lysates may run through a third protein. Here binding means that the protein was enriched with, or labelled near, the bait; the list need not be complete.

Target: Akt (protein kinase B) (rat (endogenous in rat cardiomyocytes))
Experiment: affinity purification with mass spectrometry; Akt precipitated with polyclonal Akt 1/2/3 antibody (sc-8312) and protein A-Sepharose from 1% NP-40 lysates of cardiomyocytes of control and MetS rats stimulated with 100 nM insulin for 10 min; label-free mass spectrometry of the immune complexes

Binder	binding
SFI1 centrin-binding protein (protein, UniProt D3ZTG6 1-1209) MEKKIGFRSFRDGVVKKPCSPKALPLKKSSAFSGIQRELTRSCHSSYYQSSQSWTPQRLRELRVRCVARKFLYLWMRVTFGRVTPSRARFFHEQKILRKVFGEWREEWWVSQREWKLCVRADCHYRYYLYNLIFQNWKSFVYQQREMRKRFQRAEHHDMKQKMRHAWKSWLIYMVARRTKFRMKSTALEFRRRSVLCFWWNKWRWRLGRVHAEQALHAAAVKHRALSLQLQAWLRWQEQLLISQRERRKVATAVRHHQRWQKQRTLKAWLKYLRICRVKRWQNEMAVQFHRITVLQIHFCDWQWAWEWRQSLSAHQALVAKLARKMVLRRAFAHWKHYMLLQEEEAAQREAAAEHHQHCLLHSCFRAFKDNVTRARLKRMRKSLAHQLRDTTLLHRFWNLWQSRVEQREERVQPPSLLAAQSHYRMTVLRKCVRVWLQYVHKRRCLQSLQARALGHFQQRALPAAFYTWYRVWRWHQQRRTLHTRAVRFHREALEKQVFALWRQKVSQHREIRLAERMAMLQAEQQLLRRFWFVWHQRAAACHQERQRQAMAIAHHHSGLLRRAFCIWRESTQGFRMERMGRAQASHFHSVRLLCWAWSKWREGLALRMEEQQKLKRAALHSQRTLLHRALQKWLVYQDRMRSVLQEVAARERQHNRQLLWWVLHRWRENTMARLDGAKKTSQARVHYNRTLCSKVLVQWREVTSVKIYYRQKEAAALREARKALDRGRLRTWLQRWQVCRQREAQQTFRLQQAAQHHRRQLLAGAMARWKAYHLCCVRKKFLQRQAAQLLAQRLGRACFCQWRKQLAVRKQEQWGTARALWFWAFSLQAKVWAAWLGFVLEKRRKKARLEQAMQAYHQQLLQEGATRLLRFTAGMKALRQQLQAQQQVQAAHSLHCAVRHCAELWKKKVLGPDKTSQPPAPIAFSRRVTFKDFSLSGLAAEAGDAPLSQGVLGSLAVAAGEPFIPELNEARPSRKQPRRPSFLLERVQSQRSPERCTLGEQQLQKTPEKGQSMAPPGGSSLTRPFLPVVRPNVSGPKLPPTASPGLELLPPSSFMPHGVRDAARVSTKPSISGPQPWGCPSLTRDPDPHLLLPGDSTSTRTGPGYGSETTGHTELEAELEGIQQQLQHYQTTKQNLWSCQRQANSLRRWLELSQEEPSCEDLHLEEQVKTELEEVELQIQQLAKELEAQRQPVGTCIARVRALRRALC	binds
Very long-chain specific acyl-CoA dehydrogenase (protein, UniProt P45953 41-655) ASEATQAVLEKPETLSSDASTREKPARAESKSFAVGMFKGQLTTDQVFPYPSVLNEGQTQFLKELVGPVARFFEEVNDPAKNDSLEKVEEDTLQGLKELGAFGLQVPSELGGLGLSNTQYARLAEIVGMHDLGVSVTLGAHQSIGFKGILLYGTKAQKEKYLPRVASGQALAAFCLTEPSSGSDVASIRSSAVPSPCGKYYTLNGSKIWISNGGLADIFTVFAKTPIKDAATGAVKEKITAFVVERSFGGVTHGLPEKKMGIKASNTSEVYFDGVKVPAENVLGEVGDGFKVAVNILNNGRFGMAATLAGTMKAIIAKAVDHATNRTQFGDKIHNFGVIQEKLARMAILQYVTESMAYMLSANMDQGFKDFQIEAAISKIFGSEAAWKVTDECIQIMGGMGFMKEPGVERVLRDIRIFRIFEGTNDILRLFVALQGCMDKGKELTGLGNALKNPLGNVGLLIGEASKQLRRRTGIGSGLSLSGIVHPELSRSGELAVQALEQFATVVEAKLMKHKKGIVNEQFLLQRLADGAIDLYAMVVVLSRASRSLSEGYPTAQHEKMLCDSWCIEAATRIRENMASLQSNPQQQELFRNFRSISKAMVENGGLVTSNPLRV	binds
Solute carrier family 25 member 13 (protein, UniProt F1LZW6 1-676) MAAAKVALTKRADPAELKAIFLKYASIEKNGEFFMSPHDFVTRYLNIFGESQPNPKTVELLSGVVDQTKDGLISFQEFVAFESVLCAPDALFMVAFQLFDKAGKGEVTFEDVRQVFGQTTIHQHIPFNWDSEFVQLHFGKERKRHLTYAEFTQFLLEIQLEHAKQAFVQRDNAKTGKVTAIDFRDIMVTIRPHVLTPFVEECLVAAAGGTRSHQVSFSYFNGFNSLLNNMELIRKIYSTLAGSRKDVEVTKEEFALAAQKFGQVTPMEVDILFQLADLYEPRGRMTLADIERIAPLEEGMLPFNLAEAQRQQKASGDAARPFLLQLAESAYRFGLGSIAGAVGATAVYPIDLVKTRMQNQRSTGSFVGELMYKNSFDCFKKVLRYEGFFGLYRGLLPQLLGVAPEKAIKLTVNDFVRDKFMHKDGSVPLLAEIFAGGCAGGSQVIFTNPLEIVKIRLQVAGEITTGPRVSALSVVRDLGFFGIYKGAKACFLRDIPFSAIYFPCYAHVKASFANEDGQVSPGSLLLAGAIAGMPAASLVTPADVIKTRLQVAARAGQTTYSGVTDCFRKILREEGPKALWKGAGARVFRSSPQFGVTLLTYELLQRWFYVDFGGVKPVGSELVPKSRITLPAPNPDHVGGYKLAVATFAGIENKFGLYLPLFKPSASTSKVTAVGS	binds
Electron transfer flavoprotein subunit beta (protein, UniProt Q68FU3 1-255) MAELRALVAVKRVIDFAVKIRVKPDKSGVVTDGVKHSMNPFCEIAVEEAVRLKEKKLVKEIIAVSCGPPQCQETIRTALAMGADRGIHVEVPGAEAENLGPLQVARVLAKLAEKEKVDLLFLGKQAIDDDCNQTGQMTAGLLDWPQGTFASQVTLEGDKVKVEREIDGGLETIRLKLPAVVTADLRLNEPRYATLPNIMKAKKKKIEVIKAGDLGVDLTSKVSVISVEEPPQRLAGVKVETTEDLVAKLKEVGRI	binds
Slit homolog 2 protein (Fragment) (protein, UniProt Q9WVC1 31-766) QCSCSGSTVDCHGLALRIVPRNIPRNTERLDLNGNNITRITKTDFAGLRHLRILQLMENKISTIERGAFHDLKELERLRLNRNNLQLFPELLFLGTAKLYRLDLSENQIQAIPRKAFRGAVDIKNLQLDYNQISCIEDGAFRALRDLEVLTLNNNNITRLSVASFNHMPKLRTFRLHSNNLYCDCHLAWLSDWLRQRPRVGLYTQCMGPSHLRGHNVAEVQKREFVCSDEEEGHQSFMAPSCSVLHCPIACTCSNNIVDCRGKGLTEIPTNLPETITEIRLEQNSIRVIPPGAFSPYKKLRRLDLSNNQISELAPDAFQGLRSLNSLVLYGNKITELPKSLFEGLFSLQLLLLNANKINCLRVDAFQDLHNLNLLSLYDNKLQTVAKGTFSALRAIQTMHLAQNPFICDCHLKWLADYLHTNPIETSGARCTSPRRLANKRIGQIKSKKFRCSGTEDYRSKLSGDCFADLACPEKCRCEGTTVDCSNQKLNKIPDHIPQYTAELRLNNNEFTVLEATGIFKKLPQLRKINLSNNKITDIEEGAFEGASGVNEILLTSNRLENVQHKMFKGLESLKTLMLRSNRISCVGNDSFTGLGSVRLLSLYDNQITTVAPGAFGTLHSLSTLNLLANPFNCNCHLAWLGEWLRRKRIVTGNPRCQKPYFLKEIPIQDVAIQDFTCDDGNDDNSCSPLSRCPSECTCLDTVVRCSNKGLKVLPKGIPRDVTELYLDGNQFTLVP	binds
Regulator of microtubule dynamics protein 1 (protein, UniProt Q4G069 1-310) MALSSRLWRLLPLLRGAEQSVCQLARSWGSGGRCGTWGFRGSEVTGNTRAFKRGLLFSALSYLGFETYQVISQAAVVHATAKVEEILEQADYLYESGETEKLYQLLTQYKESEDVELLWRLARASRDIAQLCKTSEEEKKVLLYEALEYAKRALEKKGSSFAAHKWYAICISDVGDYEGIKVKIANAYVIKEHFEKAIELNPKDATSIHLMGIWCYTFAEMPWYQRRIAEVLFANPPSSTYEEALKYFHRAEEVDPNFYSKNLLLLGKTYLKLNNKKLAAFWLVKAKSYPAHTEEDKQIQTEAAQLLTGL	binds
Calsequestrin-2 (protein, UniProt P51868 20-413) EEGLNFPTYDGKDRVVSLSEKNLKQVLKRYDLLCLYYHEPVSSDKVAQKQFQLKEIVLELVAQVLEHKNIGFVMVDSRKEAKLAKRLGFSEEGSLYVLKGGRTIEFDGEFAADVLVEFLLDLIEDPVEIVNNKLEVQAFERIEDQIKLLGFFKNEDSEYYKAFQEAAEHFQPYIKFFATFDKGVAKKLSLKMNEVGFYEPFMDEPSVIPNKPYTEEELVEFVKEHQRPTLRPLRPEDMFETWEDDLNGIHIVAFAEKSDPDGYEFLEILKQVARDNTDNPDLSILWIDPDDFPLLVAYWEKTFKIDLFKPQIGVVNVTDADSVWMEIPDDDDLPTAEELEDWIEDVLSGKINTEDDDNEDEDDDGDNDNDDDDDDDDNSDEDNDDSDDDDDDDE	binds
Fructose-bisphosphate aldolase A (protein, UniProt P05065 1-364) MPHPYPALTPEQKKELADIAHRIVAPGKGILAADESTGSIAKRLQSIGTENTEENRRFYRQLLLTADDRVNPCIGGVILFHETLYQKADDGRPFPQVIKSKGGVVGIKVDKGVVPLAGTNGETTTQGLDGLSERCAQYKKDGADFAKWRCVLKIGEHTPSSLAIMENANVLARYASICQQNGIVPIVEPEILPDGDHDLKRCQYVTEKVLAAVYKALSDHHVYLEGTLLKPNMVTPGHACTQKFSNEEIAMATVTALRRTVPPAVPGVTFLSGGQSEEEASINLNAINKCPLLKPWALTFSYGRALQASALKAWGGKKENLKAAQEEYIKRALANSLACQGKYTPSGQSGAAASESLFISNHAY	binds
Protein Niban (protein, UniProt Q9ESN0 1-937) MGGSASSQLDEGKCAYIRGKTEASIKNFSPYYSRQYSVAFCNHVRSEVEQQRDLTSQFLKTKPPLEPGTVLYEAELSQFAEDIRKWKDRYVVVKNDFAVESYENKEAYQRGAVPKSRILPAGGKVLTSEEEYSLLSDKHFPDPTASSEKNSQPFLVLPKAFPVYLWQPYLRHGYFCFHEAAEQQKFSALLNDCIRHLNHDYMKQTTFEAQAFLEAVQFFRQEKGHYGAWEVITGDEVQILSKLVMEELLPTLQTDLLPKLKGKKNDRKRAWFGLLEEAYNLVQHQVSEGLSALKEECRALTKDLEGTIRSDMDQIVNSKNFLTGKIRAMVAQPAENRCGESVQPFLASILEELMGPVSSGFSEVRALFEKEVDELSQSFHTTQDGAQLKECLDQLMKLPLDSVKMEPCYTKVTLLPERLLDLQSRFRFPHVDLVVQRTQNYMQELMENAVFTFEQLLSPYLQGEASRTAVAIEKVKLRVLKQYDYDSSTIRKKIFQEALIQITLPTVQKALASTCKPELQKYEQFIFADHTNMIHVENIYEEILYQILLDETLKVITEAAILKKHNLFEDNMALPSESVSSLTDLKTSMGSNQASPARGASAILPGAPGDEAPGSEVFQGPEEKQQQPGVPGSLAREESASISGSSPPSGEDGQVSVSGVDNSAGNPLSADNSAGPLSSHLSEAEAGEPPKDEETAHKRPESSAVPGSLRELKELLTVTVFVESAPEIGNDTLNGTPVPQEDKKEEEEEEESKIHPEASGPAAIQQDSCEESEVREREAHPMPLEAEAPGVNLGTLPEGRGPTSQSTGEGLTENTSCLGPIEEPSEAQGPTEEVLLATVSTQDSTEAGGEAVHSVTVTPQEDATLSSNPICPVENNEGPQVSEDQEVLGGNDSPALAMDTEQINDAHVYECHWEVEDAPSADILDVHDCDVGSPGEW	binds
